This note sets out measurements from PubChem BioAssay AID2685 (National Center for Advancing Translational Sciences (NCATS), 2010).

As usually defined, the AC50 is the concentration at which the activity in the assay is half-maximal. A lower AC50 goes with activity at low concentration.

Some of the results follow. The main result of the screen is listed elsewhere. These columns were measured beside it and carry no call. Most of these compounds were active or inconclusive in the main read-out, so they are no random draw. The note in brackets gives the kind of curve behind each potency; many fits are weak.

This test is described as follows: qHTS Assay for Lipid Storage Modulators in Drosophila S3 Cells.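 On cell number change: cells counted by Cell Tracker Red CMTPX staining in the red channel.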 The following applies: BODIPY lipid droplet fluorescence, 18-24 h; for cell number change: measured here: cell count max response, cells fed with added oleic acid. The essentials: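 Drosophila S3 cells got compounds at several concentrations plus oleic acid (400 uM solution). Laser-scanning cytometry with 488 nm excitation read lipid droplets at 500-530 nm and cells at 575-640 nm. Percent activity was relative to 20 uM Triacsin C.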

Where [1] appears, read: measured here: lipid fluorescence (Fed channel) AC50, cells fed with added oleic acid.
Where [2] appears, read: measured here: cell number channel AC50, cells fed with added oleic acid.

For `CC[C@@]1(O)C(=O)OCc2c1cc1n(c2=O)Cc2cc3c(NC(=O)CN)cccc3nc2-1`, the cell number change stood at 11.8%. In addition, the AC50 under setting [1] is 0.231 µM [rising, full curve, poor fit].

As to `CC/C(=N\NC(=O)c1ccccc1)c1c(O)n(C2CCCCC2)c(=O)[nH]c1=O`, the cell number change was -13.1%. The AC50 under setting [1] was 29.1 µM [falling, single point].

`Cc1c2ccncc2c(C)c2c1[nH]c1ccccc12`: the cell number change is -40.4%. Besides, under setting [2], the AC50 was 11.6 µM [falling, partial curve]. For the same compound, the AC50 under setting [1] was 18.4 µM [falling, partial curve, poor fit].

For `CN1C(=O)C(=Cc2ccc(N3CCOCC3)c([N+](=O)[O-])c2)C(=O)N(C)C1=O`, the cell number change worked out at 104%. Besides, under setting [2], the AC50 is 18.4 µM [rising, single point].

For the compound `O=C(N/N=C/c1c(O)n(C2CCCCC2)c(=S)[nH]c1=O)c1ccccc1O`, the cell number change was -8.4%. Under setting [1], the AC50 was 0.82 µM [falling, full curve].

Turning to `C=CCn1c(O)c(/C=N/N2CCOCC2)c(=O)[nH]c1=S`, the cell number change is -28.7%. In addition, the AC50 under setting [1] is 6.51 µM [falling, single point].

Consider `O=C1NC(=O)N(CCC2=CCCCC2)C(=O)/C1=C/c1cccs1`, for which the cell number change was -12.5%. In addition, the AC50 under setting [1] was 0.92 µM [falling, full curve, poor fit].

On to `O=C(CN1CCN(c2ccccc2F)CC1)Nc1cccnc1Cl`, for which the cell number change was -14.1%. Moreover, the AC50 under setting [1] was 23.1 µM [falling, single point].

Turning to `O=C(COc1ccccc1)NCCc1cnc[nH]1`, the cell number change was 24.6%. In addition, the AC50 under setting [1] was 2.06 µM [rising, single point].

As to `Cc1ccc2c(c1)C1CN(C)CCC1N2C(=O)c1cn(-c2ccccc2)nc1-c1ccccc1` (stereo unspecified), the cell number change was found to be 20.1%. In addition, under setting [1], the AC50 is 0.116 µM [falling, full curve, poor fit].

On to `C=Cn1ccnc1P(=S)(c1nccn1C=C)c1nccn1C=C`, for which the cell number change is -33.7%. In addition, the AC50 under setting [2] is 6.51 µM [falling, partial curve, poor fit]. Moreover, the AC50 under setting [1] was 3.66 µM [falling, partial curve, poor fit].

For `O=P(O)(O)COc1ccccc1O`, the cell number change was determined as 0.746%.

For the compound `CCOC(=O)C(O)(c1ccc(NC(=O)c2ccc(Cl)c(Cl)c2)cc1)C(F)(F)F` (stereo unspecified), the cell number change was -34.8%. In addition, the AC50 under setting [2] was 32.6 µM [falling, single point]. The half-maximal activity concentration (AC50) under setting [1] was 29.1 µM [falling, single point].

`COc1ccc(-n2c(/C=C/c3ccc(O)c(OC)c3)nc3ccccc3c2=O)cc1`: the cell number change was -34.4%. Also, the AC50 under setting [2] is 18.4 µM [falling, partial curve]. The AC50 under setting [1] was 29.1 µM [falling, single point].

As for `CCCCn1c(=O)c(C(=O)Nc2ccccc2S(N)(=O)=O)c(O)c2ccccc21`, the cell number change was -20.6%. Also, under setting [1], the AC50 was 11.6 µM [rising, partial curve].

For `CCC(=NCCc1ccccc1)c1c(O)n(C)c(=O)n(C)c1=O`, the cell number change was found to be 15.6%. The AC50 under setting [1] is 0.517 µM [rising, partial curve].

For the compound `COc1cccc(C(=O)C2CCCN(Cc3ccc(F)cc3)C2)c1` (stereo unspecified), the AC50 under setting [1] was 29.1 µM [rising, single point].

Turning to `N#CC[N+]1(CCCNP2(=O)C=C(c3ccccc3)OC(c3ccccc3)=C2)CCOCC1`, the cell number change was -25.6%. Moreover, the AC50 under setting [2] was 1.64 µM [falling, partial curve]. Moreover, under setting [1], the concentration at half-maximal activity (AC50) was 1.16 µM [falling, full curve, poor fit].

`COC(=O)C1=Nc2ccccc2/C1=C\c1c(O)n(C)c(=O)n(C)c1=O`: under setting [1], the AC50 was 0.0731 µM [rising, full curve, poor fit].

For `COc1cc(/C=C2\C(=O)NC(=O)N(c3ccccc3)C2=O)c([N+](=O)[O-])cc1OC`, the cell number change is -10.4%.

On to `CCCCc1ccc2[nH]cc(CCN)c2c1`, for which the cell number change was -8.45%. Also, the AC50 under setting [2] is 0.259 µM [falling, full curve, poor fit].

Take `O=C(c1ccc(CNS(=O)(=O)c2ccccc2)cc1)N1CCC2(CC1)OCCO2`: the cell number change worked out at 7.85%.

Regarding `c1ccc(C2OCCN3CCCCC23)cc1` (stereo unspecified), the cell number change was found to be 3.12%. Further, under setting [1], the AC50 was 5.17 µM [falling, full curve, poor fit].

In the case of `CCOC(=O)c1ccc(N2C(=O)CC(N3CCC(C#N)(c4ccccc4)CC3)C2=O)cc1` (stereo unspecified), the AC50 was 3.26 µM [rising, single point] under setting [2] and 6.51 µM [rising, single point] under setting [1].

For the compound `O=C(O)COc1ccccc1`, the cell number change was 13.9%. The AC50 under setting [1] was 0.651 µM [rising, full curve, poor fit].

Regarding `CC(=O)Nc1ccc(C(=O)OCC(=O)Nc2ccc(Cl)cc2C(=O)c2ccccc2)cc1`, the cell number change came out at 44.3%. In addition, the AC50 under setting [2] is 1.46 µM [rising, full curve]. Moreover, the AC50 under setting [1] is 0.517 µM [rising, partial curve].

As to `COc1cccc(-c2cc(C(F)(F)F)n3nc(C(=O)N4CCC5(CC4)OCCO5)cc3n2)c1`, the AC50 by setting is: under setting [2], 6.51 µM [rising, single point]; under setting [1], 6.51 µM [rising, single point].

As for `CC/C(=N\Nc1ccccc1)c1c(O)n(-c2ccccc2)c(=O)[nH]c1=O`, the cell number change was found to be 1.31%. The AC50 under setting [1] was 0.58 µM [rising, full curve].

In the case of `O=C1c2ccccc2C(=O)N1Cc1nc2ccccc2c(=O)n1-c1ccccn1`, the cell number change is 8.02%. Further, the AC50 under setting [1] is 7.31 µM [rising, partial curve, poor fit].

Consider `CC(=O)Oc1ccccc1C(=O)Nc1ncc([N+](=O)[O-])s1`, for which the AC50 under setting [2] is 23.1 µM [falling, single point].

For `COC(=O)C1=C(c2ccc(F)cc2F)C[C@@H]2CC[C@H]1N2C(=O)NCCNC(C)=O`, the cell number change was 14.6%. Also, the AC50 under setting [1] is 0.184 µM [rising, full curve, poor fit].

Consider `Clc1ccc2c(c1)C(c1ccccc1Cl)=NCc1nnc(N3CCN(CCSc4ccccc4)CC3)n1-2`, for which the AC50 under setting [1] is 0.461 µM [rising, partial curve, poor fit].

On to `COc1ccc(CC(=O)N2CCN(C)CC2)cc1OC`, for which the cell number change is -34.6%. In addition, the AC50 under setting [2] is 4.11 µM [falling, full curve, poor fit].

In the case of `CCC(C)(C)n1nnnc1C(c1cccs1)N1CC=C(c2ccc(F)cc2)CC1` (stereo unspecified), the cell number change was -16.1%. Also, the AC50 under setting [1] was 0.92 µM [rising, full curve, poor fit].

As to `COc1ccc(OCC(=O)N2CCN(CC3CC4C=CC3C4)CC2)cc1` (stereo unspecified), the cell number change came out at 18.8%.

In the case of `COc1cc2c(c(OC)c1OC)-c1ccc(O)c(=O)cc1[C@@H](N)CC2`, the cell number change is -31.4%. Besides, under setting [2], the AC50 was 0.461 µM [falling, full curve, poor fit]. For the same compound, the AC50 under setting [1] is 0.651 µM [falling, full curve, poor fit].
